Data taken from PMC10486081.
These are yes or no findings as the source states them, for the method shown. In cells and extracts the contact can be indirect. Some binding calls cover weakened binding; strength is not graded here. For part of these data: Sequences can lack the tags named with a protein.

By UniProt entry, the sequences of proteins in these tests, tags left out.
UniProt O43791: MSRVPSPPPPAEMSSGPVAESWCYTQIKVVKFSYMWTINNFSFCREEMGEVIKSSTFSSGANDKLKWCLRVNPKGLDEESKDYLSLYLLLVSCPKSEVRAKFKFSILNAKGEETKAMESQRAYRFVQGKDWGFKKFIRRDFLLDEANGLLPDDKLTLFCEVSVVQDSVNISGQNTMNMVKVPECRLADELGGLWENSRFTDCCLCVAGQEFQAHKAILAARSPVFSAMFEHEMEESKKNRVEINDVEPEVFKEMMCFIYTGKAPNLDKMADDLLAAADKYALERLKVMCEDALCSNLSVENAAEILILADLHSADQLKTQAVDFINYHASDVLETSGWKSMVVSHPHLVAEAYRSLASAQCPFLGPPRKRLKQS

What was measured:
Flag-LATS1, wild type [1] = target: T1, Flag-LATS1, wild type (UniProt O95835); test: co-IP; Flag-LATS1 (wild type or SBC mutant) and HA-SPOP transfected into BCa cells; western blot
T1 sequence: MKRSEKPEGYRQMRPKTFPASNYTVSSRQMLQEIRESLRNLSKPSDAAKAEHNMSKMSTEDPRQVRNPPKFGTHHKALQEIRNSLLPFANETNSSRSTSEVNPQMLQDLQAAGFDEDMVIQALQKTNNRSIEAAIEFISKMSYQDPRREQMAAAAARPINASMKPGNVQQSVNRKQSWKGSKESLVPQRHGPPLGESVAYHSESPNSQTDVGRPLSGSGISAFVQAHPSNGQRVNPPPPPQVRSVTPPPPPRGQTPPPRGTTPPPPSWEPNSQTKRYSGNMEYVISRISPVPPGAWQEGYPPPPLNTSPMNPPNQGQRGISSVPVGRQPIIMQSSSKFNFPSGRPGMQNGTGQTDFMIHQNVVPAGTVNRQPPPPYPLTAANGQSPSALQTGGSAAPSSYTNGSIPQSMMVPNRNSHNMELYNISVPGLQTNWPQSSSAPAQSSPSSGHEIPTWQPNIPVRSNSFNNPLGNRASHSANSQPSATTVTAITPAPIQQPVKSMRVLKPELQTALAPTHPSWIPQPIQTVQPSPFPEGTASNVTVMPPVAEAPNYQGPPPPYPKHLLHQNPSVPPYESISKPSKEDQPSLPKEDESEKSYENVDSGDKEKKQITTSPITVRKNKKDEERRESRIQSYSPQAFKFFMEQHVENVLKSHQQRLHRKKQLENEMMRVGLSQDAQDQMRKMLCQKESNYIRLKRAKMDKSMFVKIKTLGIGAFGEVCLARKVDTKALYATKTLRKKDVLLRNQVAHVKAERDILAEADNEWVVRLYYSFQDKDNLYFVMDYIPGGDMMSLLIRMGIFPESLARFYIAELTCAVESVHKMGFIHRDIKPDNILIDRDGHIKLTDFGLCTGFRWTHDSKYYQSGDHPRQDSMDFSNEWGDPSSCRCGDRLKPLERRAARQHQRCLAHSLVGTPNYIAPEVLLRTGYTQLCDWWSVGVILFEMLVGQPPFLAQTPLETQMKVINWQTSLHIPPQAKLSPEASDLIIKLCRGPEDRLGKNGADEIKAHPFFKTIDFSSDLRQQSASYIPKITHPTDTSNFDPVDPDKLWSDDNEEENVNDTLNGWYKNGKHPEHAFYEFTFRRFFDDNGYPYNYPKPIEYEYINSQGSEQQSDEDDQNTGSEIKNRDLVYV

Flag-LATS1, wild type [2] = target: T1, Flag-LATS1, wild type; test: co-IP; Flag-LATS1 (wild type or SBC mutant) and HA-SPOP transfected into 293T cells; Absin Co-IP kit, lysate with antibody 4 °C 12 h, Protein A and Protein G; western blot
[3] = target: T2, LATS1 (Large tumor suppressor kinase 1), endogenous in bladder cancer cells (human (endogenous in T24)) (UniProt O95835); test: co-IP; bladder cancer cells, control and circXRN2 knockdown; Absin Co-IP kit, lysate with antibody 4 °C 12 h, Protein A and Protein G
T2 sequence: T1 sequence

| Substance | binding (Flag-LATS1, wild type [1]) | binding (Flag-LATS1, wild type [2]) | binding [3] |
| --- | --- | --- | --- |
| HA-SPOP (from UniProt O43791 1-374) | binds | binds |  |
| SPOP (speckle-type POZ, E3 ubiquitin ligase adapter), endogenous in bladder cancer cells (from UniProt O43791 1-374) |  |  | binds |
